Results deposited as PubChem BioAssay AID686938 (Drosophila RNAi Screening Center, 2013).
The screen tested about 23,000 reagents; this is an unselected part of those with a known target gene and a result. Of all reagents, 75 (0.33%) are marked active. 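Raw plate signals without normalisation; calls rest on plate z-scores that were not deposited; ratio present for only 364 wells.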 The numbers tell different reagents against one gene apart. A plus sign joins genes that one reagent is predicted to hit. Not given: the dose of the treatment.

Assay: 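Knock-downs reducing store-operated calcium influx in Drosophila cells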 (primary screen)
System: Drosophila S2R+ cells
Knock-down reagent: long dsRNA against Drosophila genes, about 0.25 µg dsRNA per well, roughly 10,000 cells
Timing: 5 days of knock-down before the calcium assay
Challenge: thapsigargin (SERCA pump blocker) to empty calcium stores; entry signal taken 4 min after adding it
Measured: 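Per-well fluo-4 fluorescence in two replicates, unnormalised, measured in resting cells and 4 min after store depletion by the SERCA blocker thapsigargin; ratio of the two present in few wells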
Scale: calcium entry signal: higher = stronger calcium signal after store depletion; resting calcium signal: higher = higher resting calcium signal
Units: calcium entry signal in fluorescence units; resting calcium signal in fluorescence units
Active means: 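Called when the plate z-score of the entry-to-rest ratio, mean of duplicates, falls below −3; wells with low overall dye signal (Fmax z below −2) or more than five off-targets excluded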
Meaning of the calls: active = strongly reduced calcium entry; inactive = no strong reduction

For spin (GeneID 45380) #1 the deposit lists calcium entry signal, replicate 1 = 3.45e7; calcium entry signal, replicate 2 = 4.74e7; resting calcium signal, replicate 1 = 1.58e7; resting calcium signal, replicate 2 = 2.10e7; inactive.
For spin (GeneID 45380) #2, the values are calcium entry signal, replicate 1 = 2.46e7; calcium entry signal, replicate 2 = 3.90e7; resting calcium signal, replicate 1 = 1.19e7; resting calcium signal, replicate 2 = 1.90e7; inactive.
CG33461 (GeneID 2768840) gave calcium entry signal, replicate 1 = 4.37e7; calcium entry signal, replicate 2 = 3.21e7; resting calcium signal, replicate 1 = 2.50e7; resting calcium signal, replicate 2 = 1.56e7; inactive.
Silencing of Dcps (GeneID 40711) resulted in: calcium entry signal, replicate 1 = 4.12e7; calcium entry signal, replicate 2 = 4.42e7; resting calcium signal, replicate 1 = 1.82e7; resting calcium signal, replicate 2 = 2.05e7; inactive.
CG34345 (GeneID 5740402) gave calcium entry signal, replicate 1 = 2.19e7; calcium entry signal, replicate 2 = 3.15e7; resting calcium signal, replicate 1 = 1.23e7; resting calcium signal, replicate 2 = 1.27e7; inactive.
After knock-down of Herp (GeneID 34065) the results were calcium entry signal, replicate 1 = 4.40e7; resting calcium signal, replicate 1 = 2.12e7; inactive.
eIF4H1 (GeneID 49809) gave calcium entry signal, replicate 1 = 2.12e7; calcium entry signal, replicate 2 = 2.35e7; resting calcium signal, replicate 1 = 1.09e7; resting calcium signal, replicate 2 = 1.06e7; inactive.
Sirt1 (GeneID 34708) showed calcium entry signal, replicate 1 = 4.25e7; resting calcium signal, replicate 1 = 2.36e7; inactive.
Against CG6724 (GeneID 34488), the values are calcium entry signal, replicate 1 = 2.49e7; calcium entry signal, replicate 2 = 4.06e7; resting calcium signal, replicate 1 = 1.27e7; resting calcium signal, replicate 2 = 1.90e7; inactive.
Knock-down of mod (GeneID 43764) gave: calcium entry signal, replicate 1 = 3.21e7; calcium entry signal, replicate 2 = 3.38e7; resting calcium signal, replicate 1 = 1.48e7; resting calcium signal, replicate 2 = 1.62e7; inactive.
After knock-down of CG3213 (GeneID 33574), the record shows calcium entry signal, replicate 1 = 3.49e7; calcium entry signal, replicate 2 = 1.36e7; resting calcium signal, replicate 1 = 1.66e7; resting calcium signal, replicate 2 = 7.85e6; inactive.
Knock-down of Tspo + rempA came out at: calcium entry signal, replicate 1 = 4.21e7; resting calcium signal, replicate 1 = 1.99e7; inactive.

No new results follow: entries from further up.
CG6724 (GeneID 34488): calcium entry signal, replicate 1 = 2.49e7; calcium entry signal, replicate 2 = 4.06e7; resting calcium signal, replicate 1 = 1.27e7; resting calcium signal, replicate 2 = 1.90e7; Call = inactive
mod (GeneID 43764): calcium entry signal, replicate 1 = 3.21e7; calcium entry signal, replicate 2 = 3.38e7; resting calcium signal, replicate 1 = 1.48e7; resting calcium signal, replicate 2 = 1.62e7; Call = inactive
CG3213 (GeneID 33574): calcium entry signal, replicate 1 = 3.49e7; calcium entry signal, replicate 2 = 1.36e7; resting calcium signal, replicate 1 = 1.66e7; resting calcium signal, replicate 2 = 7.85e6; Call = inactive

The list goes on:
For CG12898 (GeneID 36096), the values are calcium entry signal, replicate 1 = 3.83e7; calcium entry signal, replicate 2 = 3.61e7; resting calcium signal, replicate 1 = 1.73e7; resting calcium signal, replicate 2 = 1.44e7; inactive.
obst-H (GeneID 39681) #1 showed calcium entry signal, replicate 1 = 4.54e7; calcium entry signal, replicate 2 = 4.50e7; resting calcium signal, replicate 1 = 1.95e7; resting calcium signal, replicate 2 = 1.91e7; inactive.
With knock-down of obst-H (GeneID 39681) #2, the screen gave calcium entry signal, replicate 1 = 5.00e7; calcium entry signal, replicate 2 = 4.61e7; resting calcium signal, replicate 1 = 2.00e7; resting calcium signal, replicate 2 = 1.87e7; inactive.
CG13344 (GeneID 36541) scored calcium entry signal, replicate 1 = 2.96e7; calcium entry signal, replicate 2 = 3.28e7; resting calcium signal, replicate 1 = 1.38e7; resting calcium signal, replicate 2 = 1.61e7; inactive.
After knock-down of dally (GeneID 39013) #1 the results were calcium entry signal, replicate 1 = 4.01e7; calcium entry signal, replicate 2 = 4.33e7; resting calcium signal, replicate 1 = 2.24e7; resting calcium signal, replicate 2 = 1.94e7; inactive.
Silencing of dally (GeneID 39013) #2 came out at: calcium entry signal, replicate 1 = 4.35e7; calcium entry signal, replicate 2 = 3.21e7; resting calcium signal, replicate 1 = 2.74e7; resting calcium signal, replicate 2 = 1.37e7; inactive.
For CG13999 (GeneID 33826), the values are calcium entry signal, replicate 1 = 3.81e7; calcium entry signal, replicate 2 = 3.07e7; resting calcium signal, replicate 1 = 1.70e7; resting calcium signal, replicate 2 = 1.37e7; inactive.
deltaCOP (GeneID 45250) scored calcium entry signal, replicate 1 = 1.83e7; calcium entry signal, replicate 2 = 1.72e7; resting calcium signal, replicate 1 = 1.50e7; resting calcium signal, replicate 2 = 1.18e7; active.
Knock-down of CG14131 (GeneID 39328) came out at: calcium entry signal, replicate 1 = 1.95e7; calcium entry signal, replicate 2 = 2.57e7; resting calcium signal, replicate 1 = 1.05e7; resting calcium signal, replicate 2 = 1.34e7; inactive.
